# Assay results as given in PubChem BioAssay AID200 (DTP/NCI, 2004).
# The list is a part of this screen's results and no random one: it is rich in T/C values a quarter to a half above the control, in often repeated tests (any T/C) and in doses without a T/C. Other doses and runs of a compound stand elsewhere. T/C is the treated group as % of the vehicle group. Some entries give survivors of the animals treated and no T/C: the source files T/C as zero there, which appears to mark a toxic dose or a test without result, not a measured value. Some survivor counts are full or nearly so, which does not show that the dose was tolerated: the source hardly ever lists a survival T/C far under the control, and the zero likely stands for such cases as well. Counts of survivors are from the toxicity check (mostly the fifth day) where no day follows; animals may have died later. Schedules are NCI's codes, read here as Q, the interval in days (D) or hours (H), X, the number of doses. Brackets with × stand for listed records that agree. Some doses were run more than once; the values are given in rising order. Some molecules as drawn cover several salts, stereoisomers or complexes of the source; a dose is that of the sample tested. Where survival is the endpoint, this PubChem deposit counts one and a half times the control or more as active, and values a quarter to a half above the control carry no call in these data; other NCI protocols may use other cut-offs. Some T/C values are followed by the survivors on the day toxicity was checked, most often the fifth; where none is given, no animal had died by that day.
# Test system: B6C3F1 mice, B16 melanoma ip, median survival T/C
# Assay: NCI In Vivo Anticancer Drug Screen. Data for tumor model B16 Melanoma (intraperitoneal) in B6C3F1 mice
# Details: T/C endpoint: median survival time, higher T/C = longer survival
# Procedure, shortened: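 Mice bearing transplanted tumor were dosed with compound or vehicle, and survival was recorded. Activity is expressed as the treated-group measurement (T) divided by the vehicle control measurement (C).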
# [1] = dose: 12.5 mg/kg/injection, schedule: Q01DX009 (ip), vehicle: water
# [2] = dose: 6.25 mg/kg/injection, schedule: Q01DX009 (ip), vehicle: saline
# [3] = dose: 12.5 mg/kg/injection, schedule: Q01DX009 (ip), vehicle: saline
# [4] = dose: 25.0 mg/kg/injection, schedule: Q01DX009 (ip), vehicle: saline
# [5] = dose: 50.0 mg/kg/injection, schedule: Q01DX009 (ip), vehicle: saline with Tween-80
# [6] = dose: 100.0 mg/kg/injection, schedule: Q01DX009 (ip), vehicle: saline with Tween-80
# [7] = dose: 200.0 mg/kg/injection, schedule: Q01DX009 (ip), vehicle: saline with Tween-80
# [8] = dose: 400.0 mg/kg/injection, schedule: Q01DX009 (ip), vehicle: saline with Tween-80
# [9] = dose: 25.0 mg/kg/injection, schedule: Q01DX009 (ip), vehicle: saline with Tween-80
# [10] = dose: 50.0 mg/kg/injection, schedule: Q01DX009 (ip), vehicle: saline
# [11] = dose: 200.0 mg/kg/injection, schedule: Q01DX009 (ip), vehicle: saline
# [12] = dose: 400.0 mg/kg/injection, schedule: Q01DX009 (ip), vehicle: saline
smiles,measurement,setting,value
CCN(Cc1ccc(Cl)c(Cl)c1)c1ccc2nc(N)nc(N)c2c1C,T/C,"dose: 1.56 mg/kg/injection, schedule: Q01DX009 (ip), vehicle: distilled water + Tween-80",132 % of control
same,T/C,"dose: 6.25 mg/kg/injection, schedule: Q01DX009 (ip), vehicle: distilled water + Tween-80",140 % of control
same,T/C,"dose: 6.25 mg/kg/injection, schedule: Q01DX009 (ip), vehicle: water, evaluated on day 45",131 % of control
same,T/C,"dose: 6.25 mg/kg/injection, schedule: Q01DX009 (ip), vehicle: water, evaluated on day 60",125 % of control
same,T/C,"dose: 12.5 mg/kg/injection, schedule: Q01DX009 (ip), vehicle: distilled water + Tween-80",126 % of control
same,T/C,[1],130 % of control
same,survivor count,[1],10 of 10
same,survivor count,"dose: 25.0 mg/kg/injection, schedule: Q01DX009 (ip), vehicle: water",10 of 10 (2×)
same,survivor count,"dose: 50.0 mg/kg/injection, schedule: Q01DX009 (ip), vehicle: water",8 of 10 and 10 of 10 (2×)
same,survivor count,"dose: 100.0 mg/kg/injection, schedule: Q01DX009 (ip), vehicle: water","5 of 10, 7 of 10, 9 of 10"
Cc1cn(C2CC(F)C(CO)O2)c(=O)[nH]c1=O (stereo not drawn),T/C,"dose: 500.0 mg/kg/injection, schedule: Q01DX009 (ip), vehicle: suspension in saline",128 % of control
same,T/C,"dose: 1000.0 mg/kg/injection, schedule: Q01DX009 (ip), vehicle: suspension in saline",127 % of control
N=C(N)CCCCCCCCC(=N)N,T/C,"dose: 0.78 mg/kg/injection, schedule: Q01DX009 (ip), vehicle: saline",126 % of control
same,T/C,"dose: 1.56 mg/kg/injection, schedule: Q01DX009 (ip), vehicle: saline",129 % of control
same,T/C,"dose: 3.12 mg/kg/injection, schedule: Q01DX009 (ip), vehicle: saline",132 % of control
same,survivor count,[2],10 of 10
same,survivor count,[3],9 of 10 and 10 of 10
same,survivor count,[4],"4 of 10, 6 of 10, 9 of 10"
O=C1c2ccccc2C(=O)c2c(NCCNCCO)ccc(NCCNCCO)c21,survivor count,"dose: 32.0 mg/kg/injection, schedule: Q01DX009 (ip), vehicle: other",2 of 10 and 10 of 10
same,survivor count,"dose: 40.0 mg/kg/injection, schedule: Q01DX009 (ip), vehicle: water",10 of 10
same,T/C,"dose: 62.5 mg/kg/injection, schedule: Q01DX001 (ip), vehicle: saline",147 % of control [9 of 10 alive]
same,survivor count,"dose: 64.0 mg/kg/injection, schedule: Q01DX009 (ip), vehicle: other",1 of 10
same,survivor count,"dose: 64.0 mg/kg/injection, schedule: Q01DX009 (ip), vehicle: saline",10 of 10
same,T/C,"dose: 125.0 mg/kg/injection, schedule: Q01DX001 (ip), vehicle: saline",138 and 145 % of control
same,survivor count,"dose: 250.0 mg/kg/injection, schedule: Q01DX001 (ip), vehicle: saline",6 of 10 and 10 of 10
same,survivor count,"dose: 500.0 mg/kg/injection, schedule: Q01DX001 (ip), vehicle: saline",2 of 10 and 10 of 10
same,survivor count,"dose: 1000.0 mg/kg/injection, schedule: Q01DX001 (ip), vehicle: saline",0 of 10 and 10 of 10
[Cl][Pt+2][Cl].[NH-]c1ccccc1[NH-],T/C,"dose: 2.5 mg/kg/injection, schedule: Q01DX009 (ip), vehicle: saline with Tween-80",138 % of control
same,survivor count,"dose: 10.0 mg/kg/injection, schedule: Q01DX009 (ip), vehicle: saline with Tween-80",10 of 10
ClC1(Cl)Cc2ccccc21,T/C,[5],146 % of control
same,T/C,[6],134 % of control
same,survivor count,[7],9 of 10
same,survivor count,[8],3 of 10
[N-]=[N+]=CC(=O)CCC(NC(=O)OCc1ccccc1)C(=O)OCc1ccccc1 (stereo not drawn),survivor count,"dose: 100.0 mg/kg/injection, schedule: Q01DX009 (ip), vehicle: Klucel (hydroxypropylcellulose) (HPC)",10 of 10
same,survivor count,"dose: 200.0 mg/kg/injection, schedule: Q01DX009 (ip), vehicle: Klucel (hydroxypropylcellulose) (HPC)",8 of 10
same,survivor count,"dose: 400.0 mg/kg/injection, schedule: Q01DX009 (ip), vehicle: Klucel (hydroxypropylcellulose) (HPC)",6 of 10
CC1=C(C)C(=O)O[C@@H]([C@](C)(O)[C@]2(O)CC[C@@]3(O)[C@@H]4C[C@H]5O[C@]56CC=CC(=O)[C@]6(C)[C@H]4CC[C@]23C)C1,T/C,[2],139 % of control
same,T/C,"dose: 12.5 mg/kg/injection, schedule: Q01DX009 (ip), vehicle: saline with Tween-80",131 % of control
same,T/C,[3],127 % of control
same,T/C,[9],140 % of control
same,survivor count,[9],10 of 10
same,T/C,[4],132 % of control
same,survivor count,[5],5 of 10
same,T/C,[10],128 and 130 % of control
same,survivor count,[6],1 of 10
same,survivor count,"dose: 100.0 mg/kg/injection, schedule: Q01DX009 (ip), vehicle: saline",10 of 10
same,survivor count,[7],1 of 10
same,survivor count,[11],7 of 10
same,survivor count,[8],0 of 10
Cc1nc(N)nc(N)c1-c1ccc(Cl)c(Cl)c1,T/C,"dose: 2.5 mg/kg/injection, schedule: Q01DX009 (ip), vehicle: saline",128 % of control
same,survivor count,"dose: 5.0 mg/kg/injection, schedule: Q01DX009 (ip), vehicle: saline",10 of 10 (2×)
same,survivor count,"dose: 10.0 mg/kg/injection, schedule: Q01DX009 (ip), vehicle: saline",10 of 10 (2×)
same,survivor count,"dose: 20.0 mg/kg/injection, schedule: Q01DX009 (ip), vehicle: saline",9 of 10
O=C1CNC(=O)N1CN1CCOCC1,survivor count,"dose: 800.0 mg/kg/injection, schedule: Q01DX009 (ip), vehicle: Klucel (hydroxypropylcellulose) (HPC)",7 of 10
CC(=O)OC1C(C)OC(OC(=O)C2CCC3C(C2)OC2(CC(OC(=O)/C=C/c4ccccc4)C(C)CO2)C32CO2)C(OC2OC(C)C(O)C(OC(C)=O)C2O)C1O (stereo not drawn),T/C,"dose: 6.0 mg/kg/injection, schedule: Q01DX009 (ip), vehicle: saline + alcohol",131 % of control
same,T/C,"dose: 8.0 mg/kg/injection, schedule: Q01DX009 (ip), vehicle: saline + Tween-80 + alcohol",148 % of control
COc1cccc2c1C(=O)c1c(O)c3c(c(O)c1C2=O)CC(O)(C(C)=O)CC3OC1CC(NC(=O)C(CCCCN)NC(=O)C2CCCN2)C(O)C(C)O1 (stereo not drawn),T/C,"dose: 5.0 mg/kg/injection, schedule: Q01DX001 (ip), vehicle: water",126 % of control
same,T/C,"dose: 10.0 mg/kg/injection, schedule: Q01DX001 (ip), vehicle: water",142 % of control
COc1ccc(C(C)c2cc3c(cc2OC)OCO3)cc1 (stereo not drawn),survivor count,[8],6 of 10
O=C(O[Si](Cc1ccccc1)(Cc1ccccc1)Cc1ccccc1)N(CCCl)CCCl,T/C,[6],125 and 136 % of control
same,T/C,[7],126 and 132 % of control
same,survivor count,[8],10 of 10
COc1cc(NCCCCCCCNC(C)C)c2nccc(C)c2c1,survivor count,[10],1 of 10
NC(Cc1ccc(O)c(Cl)c1)C(=O)O (stereo not drawn),survivor count,[12],10 of 10
CC(/C=C/C1OC(=O)C=CC1C)=C\C(C)C/C=C/C(C)=C/C(C)C(=O)C(C)C(O)C(C)C/C(C)=C/C(=O)O (stereo not drawn),T/C,"dose: 3.2 micrograms/kg/injection, schedule: Q01DX009 (ip), vehicle: saline + alcohol",131 % of control
same,T/C,"dose: 6.3 micrograms/kg/injection, schedule: Q01DX009 (ip), vehicle: saline + alcohol",140 % of control
same,survivor count,"dose: 50.0 micrograms/kg/injection, schedule: Q01DX009 (ip), vehicle: saline + alcohol",10 of 10
same,survivor count,"dose: 100.0 micrograms/kg/injection, schedule: Q01DX009 (ip), vehicle: saline + alcohol",10 of 10
same,survivor count,"dose: 200.0 micrograms/kg/injection, schedule: Q01DX009 (ip), vehicle: saline + alcohol",10 of 10
CC(C)NCC(O)COc1ccc(O)c(O)c1 (stereo not drawn),survivor count,[11],5 of 10 and 7 of 10
same,survivor count,[12],0 of 10
CCCCCCCCCCCCNCCCc1ccccc1,survivor count,[5],0 of 7
CCC(=O)Sc1ccccc1C(=O)Nc1ccc(Cl)cc1,survivor count,[8],9 of 9
